Ten molecules from patent US20110144056A1, “PYRAZOLE DERIVATIVES USEFUL AS INHIBITORS OF FAAH” (priority 2008, published 2011) can be followed below.

Chains of the proteins cited; added tags and fusions are not shown.
UniProt O00519, whole entry: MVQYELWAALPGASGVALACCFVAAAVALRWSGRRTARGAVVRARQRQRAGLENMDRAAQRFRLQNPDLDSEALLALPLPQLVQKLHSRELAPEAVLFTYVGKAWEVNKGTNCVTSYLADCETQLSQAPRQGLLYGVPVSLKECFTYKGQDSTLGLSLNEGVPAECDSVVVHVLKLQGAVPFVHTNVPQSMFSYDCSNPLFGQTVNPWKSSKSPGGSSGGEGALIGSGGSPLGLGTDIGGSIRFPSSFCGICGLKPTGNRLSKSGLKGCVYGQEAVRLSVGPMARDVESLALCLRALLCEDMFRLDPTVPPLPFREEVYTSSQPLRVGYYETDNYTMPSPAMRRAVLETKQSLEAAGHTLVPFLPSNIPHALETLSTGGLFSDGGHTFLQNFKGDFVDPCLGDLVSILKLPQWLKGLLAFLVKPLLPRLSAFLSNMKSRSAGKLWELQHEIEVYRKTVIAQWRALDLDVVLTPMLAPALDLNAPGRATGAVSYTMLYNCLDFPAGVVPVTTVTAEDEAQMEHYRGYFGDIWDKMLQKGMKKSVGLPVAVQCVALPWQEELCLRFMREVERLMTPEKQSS

The match of structure and compound is tentative.

One assay deals with T1, FAAH (Homo sapiens, UniProt O00519). In words: FAAH enzyme assay, lysate of CHO cells expressing human FAAH. The settings on record: read-out: FAAH Human Cell Lysate IC50. The source says:
(§1) To assist in assay development stable cell lines for human, murine and rat full length FAAH were developed. Human FAAH cDNA (Accession No: NM_001441.1) was purchased from Origene (Rockville, Md.). The full length FAAH was subcloned into the mammalian expression vector, pcDEF.neo, using XbaI and […] restriction sites and used for stable cell line generation.
CHO cells expressing FAAH were used to prepare either crude cell lysate or microsome fractions. To harvest cells, tissue culture media was decanted, the monolayer washed three times with Ca^++Mg^++ free PBS and cells recovered after 15 min in enzyme free dissociation media (Millipore Corp, Billerica, Mass.). Cells were collected by centrifuging at 2000 rpm for 15 min. and the cell pellet re-suspended with 50 mM HEPES (pH 7.4) containing 1 mM EDTA and the protease inhibitors aprotinin (1 mg/ml) and leupeptin (100 μM). The suspension was sonicated at 4° C. and the cell lysate recovered after centrifuging at 12,000×g (14,600 rpm, SS34 rotor) for 20 min at 4° C. to form a crude pellet of cell debris, nuclei, peroxisomes, lysosomes, and mitochondria; the supernatant or cell lysate was used for FAAH enzyme assay. In some cases, microsomes fractions enriched in FAAH were prepared by centrifuging the cell lysate further at 27,000 rpm (100,000×g) in SW28 rotor for 50 minutes at 4° C. The pellet containing FAAH-enriched microsomes was re-suspend in 50 mM HEPES, (pH 7.4) 1 mM EDTA, and any remaining DNA sheared by passage of material through a 23 gauge needle and aliquots of enzyme were store at −80° C. prior to use.
(American Radiolabeled Chemicals; 1 mCi/ml) with FAAH (Life Sciences (1995), 56, 1999-2005 and Journal of Pharmacology and Experimented Therapeutics (1997), 283, 729-734), Analytical. Biochemistry (2003), 318, 270-5. In addition, routine assays were performed monitoring hydrolysis of arachidonyl-7-amino-4-methylcoumarin amide (AAMCA) by following increase in fluorescence upon release of 7-amino 4-methyl coumarin (λEX=355 nm, (λEM=460 nm). Analytical. Biochemistry (2005). 343, 143-51.
Assays are performed on either cell lysate or microsome fractions prepared as described or in whole cell format employing either the fluorescent substrate AAMCA (Cayman chemical, Ann Arbor, Mich.,) or ^3H-anandmaide ([ETHANOLAMINE-1-3H]American Radiolabeled Chemicals; 1 mCi/ml). The cell lysate or microsome assay is performed in Costar black wall, clear bottom plates by adding FAAH_CHO (whole cell, cell lysate or microsome) in assay buffer (50 mM Phosphate, pH 8.0, 1 mM EDTA, 200 mM KCl, 0.2% glycerol, 0.1% fatty acid free BSA) to each well, followed by either DMSO or compound and allowed to incubate at 22-25° C. for fifteen minutes. AAMCA substrate was used to achieve a final concentration of 1 μM and reaction allowed to proceed at room temperature for 1-3 hours. Fluorescent release as a measure of FAAH activity was monitored by reading the plate in a CytoFluor Multiplate Reader ([…]). Whole cell assay is conducted with cells harvested after rinsing tissue culture flasks three times with Ca^++Mg^++ free PBS, incubating for 10 mm in Enzyme free dissociation media and centrifuging for 5 minutes at 1,000 rpm in table top centrifuge. Cells are resuspended in assay buffer at desired cell number in (4×10^4 cells/assay in 96-well format; 1×10^4 cells/assay in 384-well format) and assayed as described.
Alternatively, assays are performed using anandamide [ethanolamine 1-^3H] (specific activity of 10 Ci/mmol) diluted with cold anandamide to achieve a final assay concentration of 1 μM anandamide (˜50,000 cpm). Enzyme (CHO cell lysate, brain or liver homogenate) is incubated in assay buffer (50 mM Phosphate, pH 8.0, 1 mM EDTA, 200 mM KCl, 0.2% glycerol, 0.1% fatty acid free BSA) with inhibitor at 25° C. for 30 minutes. The reaction was terminated by addition of 2 volumes of chloroform:methanol (1:1) and mixed by vortexing. […]
What is called IC50 is the concentration that inhibits the measured activity by half. Regarding `CCNC(=O)c1ccc2cc(-c3nn(CC)cc3Sc3ccc(Cl)cc3)ccc2n1`, the half-maximal inhibitory concentration (IC50) is 5 nM.
Still for that read-out and setting: to `CC(=O)N1CCc2cc(-c3nn(C)cc3Sc3ccc(Cl)cc3)ccc2C1` belongs 64 nM; to `CCOC(=O)c1cnc2cc(-c3n[nH]cc3Sc3ccc(Cl)cc3)ccc2c1`, 8.5 nM.
Same read-out and setting: to `CCOC(=O)c1cnc2cc(-c3nn(-c4ccc(F)cc4)cc3Sc3ccc(Cl)cc3)ccc2c1` belongs 5.1 nM; to `OCc1cnc2cc(-c3nn(-c4ccc(F)cc4)cc3Sc3ccc(Cl)cc3)ccc2c1`, 6.7 nM; to `CCNC(=O)c1ccc2cc(-c3nn(C)cc3Sc3ccc(Cl)cc3)ccc2n1`, 1.89 nM.
On the same count and under the same terms, to `CC(=O)N1CCc2cc(-c3nn(-c4ccccn4)cc3Sc3ccc(Cl)cc3)ccc2C1` belongs 5.3 nM; to `O=C1NCCc2cc(-c3nn(-c4ccc(F)cc4)cc3Sc3ccc(Cl)cc3)ccc21` [Example 308, 6-{4-[(4-chlorophenyl)sulfanyl]-1-(4-fluorophenyl)-1H-pyrazol-3-yl}-3,4-dihydroisoquinolin-1(2H)-one], 6.7 nM; to `FC(F)c1ccc2cc(-c3n[nH]cc3Sc3ccc(Cl)cc3)ccc2n1`, 88 nM.

The next assay deals with T1, FAAH. In words: FAAH whole cell assay, CHO cells expressing human FAAH. Conditions: read-out: FAAH Human Whole Cell IC50.
From the text: as §1
Murine (accession number NM_010173) and Rat FAAH (accession number NM_024132) was amplified by reverse transcriptase polymerase chain reaction (RT-PCR) from brain cDNA (BD Biosciences, San Jose, Calif.) using primers 1 and 2 or primers 1 and 3 respectively (see Table). The resulting PCR product was ligated into pCR4TOPO and DNA sequence confirmed. […] Following selection in geneticin, individual clones were selected and FAAH activity was assessed using a whole cell fluorescent anandamide assay, modified from Ramarao et al (2005). […] Release of fluorescence was monitored in a CytoFluor Multiplate Reader. […]
Assays are performed on either cell lysate or microsome fractions prepared as described or in whole cell format employing either the fluorescent substrate AAMCA (Cayman chemical, Ann Arbor, Mich.,) or ^3H-anandmaide ([ETHANOLAMINE-1-3H]American Radiolabeled Chemicals; 1 mCi/ml). […] Fluorescent release as a measure of FAAH activity was monitored by reading the plate in a CytoFluor Multiplate Reader (Ex: 360/40 nM; Em: 460/40 nM). […]
As for `CCOC(=O)c1ccc2cc(-c3c(Sc4ccc(Cl)cc4)cnn3C3CCCCO3)ccc2n1` (stereo not shown), the half-inhibitory concentration (IC50) was 3.6 nM.
